Experimental data published in patent publication US20130029391A1, “METHOD OF PREPARING KODA USING LEMNA PAUCICOSTATA” (priority 2010, published 2013).
At least one read-out could not be matched to a standard name with certainty.

B1: SHLpLOX: position 9-product specific lipoxygenase derived from Lemna paucicostata SH strain (SEQ ID NO: 3), expressed in Escherichia coli (protein, listed as Lemna paucicostata)
chain: MAGFLQKVTDNLLHKAAKISGTVVLVKSNVVGFNDFADSFLDGLHELLGSGITFQLVSATVGDPKNGNKGKLGKPALLEKWITTGTFLAAGDSGFKVNFEWDEQLGVPGAVIVKNNHHGEFFLKSLTLDGAPGPRSRIHFDCNSWVYPYSTYNYDRVFFANDTYLPGEMPEPLKAYRAAELVNLRGDGVTRELKEGDRIYAYDLYNDLGDPDSGKELARPILGGSEEYPYPRRARTGRKLTKTDPKSEQRLPLVFSLNVYVPRDERFGHLKMSDFLAYSLKALAQGLVPALDAATDITPFEFDTFQDVLNLYEGGINLPTTPALENFKKQIPFPLVKELFRSDGENLFRLPTPSVIKADKFAWRTDEEFGREMLAGVNPVCIRLLKKFPPVSSLDPSIYRNQNSTMIADQLEKNMNGLSVEEALKQKKLFILDHHDSLMPYLERINTFNKIYASRTVLLLQDDGTLKPLAIELSLPVKGEKGAVSKVYTPAEHGVEGAVWQLAKAYVAVNDSGVHQLISHWLNTHATIEPFSIALNRQLSVVHPIYKLLHPHFRDTMNINAFARQILINAGGILEMTVFPGKYAMEMSSVVYKGWKLTDQALPVDLLNRGVAEKDPSSGELRLLIEDYPYAVDGLDVWNAIEEWVKEYCAIYYPSDKTLQDDTEVQAWWKEVREVGHGDKKDETWWPAMETVAELTQTCSTIIWVASALHAAVNFAQYPYAGYLPNRPTISRRFMPEPGTPEYEELETDPDRAFLKTITSQLQTLIGVSLIEILSRHSSDEIYLGQRVSAEWTSDAKALAAFKAFGEKLITIENKIIEMNVDSSLKNRNGPVKVPYTFLYPNTTDYTRVGGLTGRGIPNSISI
B2: Arabidopsis thaliana allene oxide synthase AtAOS (Arabidopsis thaliana) (protein)
chain: SGSETPDLTVATRTGSKDLPIRNIPGNYGLPIVGPIKDRWDYFYDQGAEEFFKSRIRKYNSTVYRVNMPPGAFIAENPQVVALLDGKSFPVLFDVDKVEKKDLFTGTYMPSTELTGGYRILSYLDPSEPKHEKLKNLLFFLLKSSRNRIFPEFQATYSELFDSLEKELSLKGKADFGGSSDGTAFNFLARAFYGTNPADTKLKADAPGLITKWVLFNLHPLLSIGLPRVIEEPLIHTFSLPPALVKSDYQRLYEFFLESAGEILVEADKLGISREEATHNLLFATCFNTWGGMKILFPNMVKRIGRAGHQVHNRLAEEIRSVIKSNGGELTMGAIEKMELTKSVVYECLRFEPPVTAQYGRAKKDLVIESHDAAFKVKAGEMLYGYQPLATRDPKIFDRADEFVPERFVGEEGEKLLRHVLWSNGPETETPTVGNKQCAGKDFVVLVARLFVIEIFRRYDSFDIEVGTSPLGSSVNFSSLRKASF

Columns and labels:
[1] = Kinetic analysis of 9-LOX, absorbance at 234 nm, Hanes-Woolf plot; assay type: biochemical; details: substrate α-linolenic acid 10-100 μM, pH 6.0, 25° C.
Method: The substrate α-linolenic acid was tested at the substrate concentration of 10-100 μM. 100 μl of the reaction mixture was added into a cuvette, and absorbance at 234 nm was scanned over time for 10 minutes at an interval of 15 seconds using the SmartSpec Plus Spectrophotometer (Bio-Rad).

[2] = Kinetic analysis of AOS, decrease in absorbance at 234 nm, Hanes-Woolf plot; assay type: biochemical; details: substrate 9-HPOT 5-53 μM, pH 7.5, 25° C.
Method: SHLpAOS obtained from Lemna paucicostata SH strain was subjected to kinetic analysis. […] The substrate 9-HPOT was tested at the substrate concentration of 5-53 μM. The substrate 9-HPOT was added as an EtOH solution, and the final concentration of EtOH was adjusted to 1%. 100 μl of the reaction mixture was added into a cuvette, and a decrease in absorbance at 234 nm was scanned over time for 1 minute at an interval of 2 seconds using the SmartSpec Plus Spectrophotometer (Bio-Rad). From the A234 determined, the amount of the reaction product was calculated (e=25,000). […] It is believed that compared to AtAOS, SHLpAOS is a very useful AOS in the practical production of KODA.

| Molecule | kcat/Km [1] | kcat/Km [2] |
| --- | --- | --- |
| B1 | 41.4 ± 10.0 ×10^5M^−1min^−1 | 99.0 ± 23.7 ×10^6M^−1sec^−1 |
| B2 |  | 7.0 ± 3.8 ×10^6M^−1sec^−1 |
